In the supplement of paper PMC6411743 one finds NP40-soluble protein abundance data, which are given here for one compound.

Molecules are shown by their SMILES. ± gives the standard deviation of the averaged measurements. Only a part is listed here, and it is no random draw.

Common to all, as to test: NP40-soluble protein abundance relative to vehicle (solubility fold change) (ratio); higher = more soluble protein in presence of ATP
In one test the target is T1, SERGEF (UniProt Q9UGK8).
T1 sequence (whole entry): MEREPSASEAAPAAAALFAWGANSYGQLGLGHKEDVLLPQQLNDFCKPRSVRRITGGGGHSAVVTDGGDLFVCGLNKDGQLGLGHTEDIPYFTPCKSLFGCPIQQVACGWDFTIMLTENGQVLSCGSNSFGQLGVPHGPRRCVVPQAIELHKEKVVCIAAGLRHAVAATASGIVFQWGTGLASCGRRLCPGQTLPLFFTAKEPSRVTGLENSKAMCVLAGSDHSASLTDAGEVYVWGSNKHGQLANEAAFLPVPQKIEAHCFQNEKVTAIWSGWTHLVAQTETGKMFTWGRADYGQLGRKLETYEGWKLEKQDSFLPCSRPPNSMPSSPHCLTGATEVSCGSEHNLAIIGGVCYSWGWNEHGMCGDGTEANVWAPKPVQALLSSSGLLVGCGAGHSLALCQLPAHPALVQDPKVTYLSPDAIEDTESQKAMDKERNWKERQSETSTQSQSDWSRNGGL
Put shortly:
(§1)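 Eight concentrations, 0.1 to 10 mM, were tested on Jurkat crude lysate for 10 min at room temperature and then 3 min at 37 °C, in three independent experiments. The lysate was solubilised with 0.8% NP40 and benzonase, ultracentrifuged, and the supernatant TMT-labelled for LC-MS/MS. Each value is the fold change against the detergent-processed vehicle in its own replicate, from vsn-normalised intensities.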

Another test addresses T2, SNX6 (UniProt Q9UNH7).
T2 sequence (whole entry): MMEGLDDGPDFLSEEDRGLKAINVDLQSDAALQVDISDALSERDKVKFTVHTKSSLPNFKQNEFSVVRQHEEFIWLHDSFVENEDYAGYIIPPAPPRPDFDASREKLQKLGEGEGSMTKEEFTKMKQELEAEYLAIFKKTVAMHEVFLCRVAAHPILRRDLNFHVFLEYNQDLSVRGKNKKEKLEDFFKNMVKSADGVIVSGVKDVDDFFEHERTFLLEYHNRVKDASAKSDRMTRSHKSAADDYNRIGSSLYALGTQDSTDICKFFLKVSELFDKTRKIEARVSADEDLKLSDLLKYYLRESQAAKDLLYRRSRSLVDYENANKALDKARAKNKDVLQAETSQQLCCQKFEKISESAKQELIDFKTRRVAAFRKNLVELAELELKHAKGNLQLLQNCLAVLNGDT
Put shortly: as §1

Another test deals with T3, TFIP11 (UniProt Q9UBB9).
T3 sequence (whole entry): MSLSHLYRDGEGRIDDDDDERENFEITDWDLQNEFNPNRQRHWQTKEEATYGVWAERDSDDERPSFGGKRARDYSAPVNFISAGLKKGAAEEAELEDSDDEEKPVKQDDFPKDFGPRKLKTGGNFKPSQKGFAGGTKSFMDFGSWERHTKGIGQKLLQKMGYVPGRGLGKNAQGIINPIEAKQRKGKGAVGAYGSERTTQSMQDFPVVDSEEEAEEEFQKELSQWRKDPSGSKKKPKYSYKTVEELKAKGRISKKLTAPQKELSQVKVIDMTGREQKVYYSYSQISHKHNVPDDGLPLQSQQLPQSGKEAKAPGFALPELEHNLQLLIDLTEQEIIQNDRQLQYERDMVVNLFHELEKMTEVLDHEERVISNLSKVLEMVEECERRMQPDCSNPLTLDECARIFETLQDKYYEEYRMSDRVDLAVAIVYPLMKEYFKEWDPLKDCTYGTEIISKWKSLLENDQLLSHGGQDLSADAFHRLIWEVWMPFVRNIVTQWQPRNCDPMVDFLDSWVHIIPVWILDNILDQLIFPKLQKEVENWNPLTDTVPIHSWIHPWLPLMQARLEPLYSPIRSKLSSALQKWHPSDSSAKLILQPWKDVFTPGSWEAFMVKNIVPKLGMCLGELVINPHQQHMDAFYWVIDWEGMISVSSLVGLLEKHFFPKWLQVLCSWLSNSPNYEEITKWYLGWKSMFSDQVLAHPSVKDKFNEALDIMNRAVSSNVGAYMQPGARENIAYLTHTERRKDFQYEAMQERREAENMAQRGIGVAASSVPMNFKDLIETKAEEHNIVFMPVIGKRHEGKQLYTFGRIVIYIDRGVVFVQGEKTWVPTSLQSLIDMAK
An outline of the steps: as §1

Test [1] has as its target T4, UniProt Q9UJS0 and related entries.
T4 sequence (whole entry): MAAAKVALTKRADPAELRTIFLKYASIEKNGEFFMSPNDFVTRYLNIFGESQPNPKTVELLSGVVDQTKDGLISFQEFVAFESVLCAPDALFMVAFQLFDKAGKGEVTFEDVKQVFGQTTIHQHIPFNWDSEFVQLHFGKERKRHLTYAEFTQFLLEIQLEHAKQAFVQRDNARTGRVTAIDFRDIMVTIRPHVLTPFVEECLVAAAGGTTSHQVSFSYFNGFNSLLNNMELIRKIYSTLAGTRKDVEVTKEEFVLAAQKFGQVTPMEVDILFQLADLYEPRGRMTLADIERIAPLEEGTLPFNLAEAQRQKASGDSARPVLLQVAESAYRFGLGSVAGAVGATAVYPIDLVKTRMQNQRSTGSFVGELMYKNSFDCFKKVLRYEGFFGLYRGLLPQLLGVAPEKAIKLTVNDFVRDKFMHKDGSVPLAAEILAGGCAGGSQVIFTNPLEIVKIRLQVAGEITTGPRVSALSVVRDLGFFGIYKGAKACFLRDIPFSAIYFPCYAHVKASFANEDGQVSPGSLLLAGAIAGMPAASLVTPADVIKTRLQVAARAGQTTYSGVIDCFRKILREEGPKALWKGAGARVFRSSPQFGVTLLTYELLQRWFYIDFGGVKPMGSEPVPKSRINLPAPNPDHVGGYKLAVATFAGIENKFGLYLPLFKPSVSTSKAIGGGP
Put shortly: as §1

`Nc1ncnc2c1ncn2[C@@H]1O[C@H](COP(=O)(O)OP(=O)(O)OP(=O)(O)O)[C@@H](O)[C@H]1O` [adenosine triphosphate]: the NP40-soluble protein abundance is 0.978 ± 0.092 with SERGEF (concentration: 1mM); 0.988 ± 0.074 with SERGEF (concentration: 2mM); 0.972 ± 0.11 with SERGEF (concentration: 4mM); 0.942 ± 0.12 in the test with SERGEF (concentration: 6mM); 0.94 ± 0.088 with SERGEF (concentration: 8mM); 0.982 ± 0.088 in the test with SERGEF (concentration: 10mM). For the same compound, the NP40-soluble protein abundance was 0.941 ± 0.037 in the test with SNX6 (concentration: 1mM); 0.944 ± 0.013 with SNX6 (concentration: 2mM); 0.899 ± 0.029 with SNX6 (concentration: 4mM); 0.982 ± 0.04 with SNX6 (concentration: 6mM); 0.917 ± 0.018 with SNX6 (concentration: 8mM); 0.91 ± 0.035 in the test with SNX6 (concentration: 10mM). In addition, the NP40-soluble protein abundance in the test with TFIP11 (concentration: 1mM) came to 1.09 ± 0.033; with TFIP11 (concentration: 2mM) it was 1.08 ± 0.075; with TFIP11 (concentration: 4mM), 1.1 ± 0.066; with TFIP11 (concentration: 6mM) it was 1.14 ± 0.086; with TFIP11 (concentration: 8mM), 1.21 ± 0.097; in the test with TFIP11 (concentration: 10mM), 1.28 ± 0.12. Besides, the results for the NP40-soluble protein abundance in test [1] (concentration: 1mM), in test [1] (concentration: 2mM) and in test [1] (concentration: 4mM) were 1.1 ± 0.099, 1.04 ± 0.079 and 1.05 ± 0.09, respectively.
